The source of these data is PubChem BioAssay AID256 (DTP/NCI, 2004).

The list shows only some results of the screen, not a fair sample: it is rich in T/C values a quarter to a half above the control, in often repeated tests (any T/C) and in doses without a T/C. Further doses and runs are listed elsewhere. T/C: endpoint of the treated group in % of that of the vehicle group. Some entries give survivors of the animals treated and no T/C: the source files T/C as zero there, which appears to mark a toxic dose or a test without result, not a measured value. Some doses without a T/C left all or most animals alive at the check, yet need not have been tolerated: the source hardly ever lists a survival T/C far under the control, and the zero likely stands for such cases as well. Counts of survivors are from the toxicity check (mostly the fifth day) where no day follows; animals may have died later. Schedule codes are those of the source, taken here to give the interval after Q, in days (D) or hours (H), and the number of doses after X. For survival time, this PubChem deposit counts one and a half times the control or more as active, and values a quarter to a half above the control carry no call in these data; other NCI protocols may use other cut-offs. Some entries were tested several times; their values stand side by side, smallest first. Some T/C values carry the count of animals alive at the toxicity check (mostly the fifth day); where none is given, no animal had died by that day.

The assay relates to CD2F1 mice, L1210 leukemia ip, survival T/C. Description: NCI In Vivo Anticancer Drug Screen. Data for tumor model L1210 Leukemia (intraperitoneal) in CD2F1 (CDF1) mice. To be noted: higher T/C = longer survival. An outline of the steps: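 Vehicle-treated tumor-bearing mice served as controls (C) for compound-treated mice (T). Reported figure is T divided by C.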
The mark [1] stands for this setting: T/C endpoint: mean survival time, dose: 100.0 mg/kg/injection, schedule: Q01DX009 (ip), vehicle: Klucel (hydroxypropylcellulose) (HPC).
Setting [2] is: T/C endpoint: mean survival time, dose: 150.0 mg/kg/injection, schedule: Q01DX001 (ip), vehicle: saline.
The mark [3] stands for this setting: T/C endpoint: mean survival time, dose: 300.0 mg/kg/injection, schedule: Q01DX001 (ip), vehicle: saline.
Setting [4] is: T/C endpoint: mean survival time, dose: 300.0 mg/kg/injection, schedule: Q01DX001 (ip), vehicle: other.
[5] abbreviates: T/C endpoint: mean survival time, dose: 400.0 mg/kg/injection, schedule: Q04DX003 (ip), vehicle: saline.
Where [6] appears, read: T/C endpoint: mean survival time, dose: 200.0 mg/kg/injection, schedule: Q04DX003 (ip), vehicle: saline.
[7] abbreviates: T/C endpoint: mean survival time, dose: 200.0 mg/kg/injection, schedule: Q01DX009 (ip), vehicle: saline with Tween-80.
Setting [8] is: T/C endpoint: mean survival time, dose: 400.0 mg/kg/injection, schedule: Q04DX003 (ip), vehicle: saline with Tween-80.
Where [9] appears, read: T/C endpoint: mean survival time, dose: 400.0 mg/kg/injection, schedule: Q01DX009 (ip), vehicle: saline with Tween-80.
[10] abbreviates: T/C endpoint: mean survival time, dose: 200.0 mg/kg/injection, schedule: Q04DX002 (ip), vehicle: saline with Tween-80.
The mark [11] stands for this setting: T/C endpoint: mean survival time, dose: 25.0 mg/kg/injection, schedule: Q04DX003 (ip), vehicle: other.

For the molecule `Cc1cccc(N=NN(C)C)c1`, the survivor count runs as follows: under setting [1], 1 of 6; under setting [2], 3 of 6; under setting [3], 1 of 6.

For `CN(C)CC1CC2(CC(CN(C)C)C1=O)OCCO2` (configuration not stated), the survivor count runs as follows: (T/C endpoint: mean survival time, dose: 75.0 mg/kg/injection, schedule: Q01DX001 (ip), vehicle: other) 0 of 6; (T/C endpoint: mean survival time, dose: 150.0 mg/kg/injection, schedule: Q01DX001 (ip), vehicle: other) 0 of 6; under setting [4], 0 of 6.

Regarding `CC1CCCC2C(=O)OC(=O)C12` (configuration not stated), where the note is “T/C endpoint: mean survival time, dose: 400.0 mg/kg/injection, schedule: Q04DX003 (ip), vehicle: Klucel (hydroxypropylcellulose) (HPC)”, the survivor count is listed as 2 of 3.

`CCCCCCCC(C)/C=N/NC(=O)c1ccc[n+](C)c1` (configuration not stated): the survivor count under setting [5] is recorded as 0 of 6.

As for `CCN(CC)CCOC(=O)C(c1ccccc1)C(C)(O)CC` (configuration not stated), the survivor count runs as follows: under setting [6], 2 of 6; under setting [5], 0 of 6.

Take `Cc1[nH]ccc2c(C)c3nc4ccccc4c3cc12`: the T/C is, setting by setting: (T/C endpoint: mean survival time, dose: 66.0 mg/kg/injection, schedule: Q04DX003 (ip), vehicle: saline with Tween-80) 140 % of control; (T/C endpoint: mean survival time, dose: 100.0 mg/kg/injection, schedule: Q04DX003 (ip), vehicle: saline with Tween-80) 136 and 138 % of control; (T/C endpoint: mean survival time, dose: 150.0 mg/kg/injection, schedule: Q04DX003 (ip), vehicle: saline with Tween-80) 136 % of control [5 of 6 alive]. Also, the survivor count by setting is: under setting [7], 5 of 6; under setting [8], 6 of 6.

`C=C(Cl)CNC`: the survivor count runs as follows: (T/C endpoint: mean survival time, dose: 100.0 mg/kg/injection, schedule: Q01DX001 (ip), vehicle: acetone) 0 of 6; (T/C endpoint: mean survival time, dose: 200.0 mg/kg/injection, schedule: Q01DX001 (ip), vehicle: acetone) 0 of 6; (T/C endpoint: mean survival time, dose: 400.0 mg/kg/injection, schedule: Q01DX001 (ip), vehicle: acetone) 0 of 6.

With `O=C(CCCN1CCN2Cc3[nH]c4ccccc4c3CC2C1)c1ccc(F)cc1` (configuration not stated), the survivor count by setting is: (T/C endpoint: mean survival time, dose: 25.0 mg/kg/injection, schedule: Q01DX009 (ip), vehicle: saline with Tween-80) 4 of 6; (T/C endpoint: mean survival time, dose: 50.0 mg/kg/injection, schedule: Q01DX009 (ip), vehicle: saline with Tween-80) 2 of 6; (T/C endpoint: mean survival time, dose: 100.0 mg/kg/injection, schedule: Q01DX009 (ip), vehicle: saline with Tween-80) 0 of 6.

As to `CSCC(NC(=O)OCc1ccccc1)C(=O)O` (configuration not stated), the survivor count under setting [8] was 3 of 6.

In the case of `NC(=O)c1cc([N+](=O)[O-])ccc1NN=NCCF`, the survivor count runs as follows: (T/C endpoint: mean survival time, dose: 100.0 mg/kg/injection, schedule: Q01DX001 (ip), vehicle: Klucel (hydroxypropylcellulose) (HPC)) 0 of 3; (T/C endpoint: mean survival time, dose: 200.0 mg/kg/injection, schedule: Q01DX001 (ip), vehicle: Klucel (hydroxypropylcellulose) (HPC)) 0 of 3.

Take `O=S(=O)(O)O.[N-]=C(N)/N=C(\[NH-])N.[N-]=C(N)/N=C(\[NH-])N.[N-]=C(N)NC(=[N-])N.[Rh+3]`: the survivor count (T/C endpoint: mean survival time, dose: 50.0 mg/kg/injection, schedule: Q04DX003 (ip), vehicle: saline) is 5 of 6; the survivor count (T/C endpoint: mean survival time, dose: 100.0 mg/kg/injection, schedule: Q04DX003 (ip), vehicle: saline) is recorded as 0 of 6; the survivor count under setting [6] is on record as 0 of 6; the survivor count under setting [5] was 0 of 6.

As to `NC(=O)NC(=O)c1cccc([N+](=O)[O-])c1`, the survivor count is 2 of 6 under setting [9] and 6 of 6 under setting [8].

For the molecule `C=C1c2cccc(O)c2C(O)=C2C(=O)[C@]3(O)C(O)=C(C(N)=O)C(=O)[C@@H](N(C)C)[C@@H]3[C@@H](O)[C@H]12`, the survivor count (T/C endpoint: median survival time, dose: 200.0 mg/kg/injection, schedule: Q01DX009 (ip), vehicle: Klucel (hydroxypropylcellulose) (HPC)) is 5 of 6.

For `N=C(N)SCc1cccc([N+](=O)[O-])c1`, the survivor count runs as follows: under setting [10], 0 of 3; (T/C endpoint: mean survival time, dose: 400.0 mg/kg/injection, schedule: Q04DX002 (ip), vehicle: saline with Tween-80) 0 of 3.

Regarding `O=C1CCN(Cl)C(=O)N1Cl`, the survivor count is on record as 0 of 6 (T/C endpoint: mean survival time, dose: 75.0 mg/kg/injection, schedule: Q01DX001 (ip), vehicle: saline); 0 of 6 under setting [2]; 0 of 6 under setting [3].

Consider `N#Cc1cn(C2OC(CO)C(O)C2O)c2ncn(N)c(=N)c12` (configuration not stated), for which the survivor count is given as 6 of 6 (T/C endpoint: mean survival time, dose: 200.0 mg/kg/injection, schedule: Q01DX005 (ip), vehicle: water) and 0 of 6 (T/C endpoint: mean survival time, dose: 400.0 mg/kg/injection, schedule: Q01DX005 (ip), vehicle: water).

In the case of `Cc1cccc(CN(C)C)n1`, the survivor count is, setting by setting: (T/C endpoint: mean survival time, dose: 200.0 mg/kg/injection, schedule: Q04DX002 (ip), vehicle: saline) 0 of 3; (T/C endpoint: mean survival time, dose: 400.0 mg/kg/injection, schedule: Q04DX002 (ip), vehicle: saline) 0 of 3.

For `CN(C)c1ccc2nc(CC(O)(C(F)(F)F)C(F)(F)F)ccc2c1`, the survivor count (T/C endpoint: mean survival time, dose: 200.0 mg/kg/injection, schedule: Q04DX003 (ip), vehicle: saline with Tween-80) is listed as 6 of 6 and the survivor count under setting [8] is on record as 6 of 6.

`O=C(O)CC(NC(=O)OCc1ccccc1)C(=O)OCc1ccccc1` (configuration not stated): the survivor count under setting [9] was 3 of 6.

Regarding `CN/N=C1\CCC2(C)C(CCC3C4CCC(O)C4(C)CCC32)C1` (configuration not stated), the survivor count was 3 of 6 under setting [1] and 0 of 6 (T/C endpoint: mean survival time, dose: 200.0 mg/kg/injection, schedule: Q01DX009 (ip), vehicle: Klucel (hydroxypropylcellulose) (HPC)).

`OCc1ccc(Cl)cc1Cl`: under setting [9], the survivor count is on record as 3 of 6.

Turning to `O=C(O)C1CCCCC1C(=O)O.[NH-]C1CCCCC1[NH-].[Pt+2]` (configuration not stated), the T/C was 127 % of control under setting [11] and 132 % of control (T/C endpoint: mean survival time, dose: 50.0 mg/kg/injection, schedule: Q04DX003 (ip), vehicle: other).

In the case of `O=c1cc(CCl)oc(Br)c1O`, under setting [10], the survivor count is listed as 1 of 3.

Regarding `COc1cc2c(cc1OC)C(OC)N(C)c1c-2ccc2cc3c(cc12)OCO3` (configuration not stated), under “T/C endpoint: mean survival time, dose: 50.0 mg/kg/injection, schedule: Q01DX009 (ip), vehicle: water”, the survivor count is 2 of 6.

Turning to `C=CCSc1cccc2ccccc12`, the survivor count under setting [9] is given as 4 of 6.

For `CCN(CC)C1=C(Cl)C(=O)C(=O)c2cccnc21`, the survivor count is on record as 4 of 6 (T/C endpoint: mean survival time, dose: 18.8 mg/kg/injection, schedule: Q01DX009 (ip), vehicle: saline) and 2 of 6 (T/C endpoint: mean survival time, dose: 37.5 mg/kg/injection, schedule: Q01DX009 (ip), vehicle: saline).

As for `Cc1cc(C)c(C)c(S(=O)(=O)O)c1C`, the survivor count by setting is: under setting [7], 2 of 6; under setting [8], 2 of 6.

For the molecule `O=C(CCl)n1nc(Cl)c2ccc([N+](=O)[O-])cc21`, the survivor count (T/C endpoint: mean survival time, dose: 400.0 mg/kg/injection, schedule: Q01DX001 (ip), vehicle: saline) is recorded as 2 of 4.

For the molecule `Cc1ccc(NC(=O)NO)cc1`, the survivor count (T/C endpoint: mean survival time, dose: 140.0 mg/kg/injection, schedule: Q03HX024 (ip), vehicle: saline with Tween-80) is 1 of 8 and the survivor count (T/C endpoint: mean survival time, dose: 210.0 mg/kg/injection, schedule: Q03HX024 (ip), vehicle: saline with Tween-80) is 0 of 8.

As for `CC(=O)Nc1cc(CN2CCCCC2)c(O)c2ncccc12`, the survivor count under setting [4] is reported as 3 of 6.

As for `O=C1C(=O)c2ccccc2C(O)=C1C(C1=C(O)c2ccccc2C(=O)C1=O)c1ccccc1Br`, the survivor count under setting [7] was 5 of 6 and the survivor count under setting [9] was 2 of 6.

In the case of `C[n+]1ccc(/C(=N\O)c2ccccc2)cc1`, the survivor count under setting [3] is 0 of 6.

For `Nc1cc2c(c[n+](CCCCCCCC[n+]3cc4c5ccccc5c(N)cc4c4ccccc43)c3ccccc23)c2ccccc12`, the T/C (T/C endpoint: mean survival time, dose: 1.56 mg/kg/injection, schedule: Q04DX003 (ip), vehicle: other) was 128 % of control; the T/C (T/C endpoint: mean survival time, dose: 3.13 mg/kg/injection, schedule: Q04DX003 (ip), vehicle: other) was 135 % of control; the T/C (T/C endpoint: mean survival time, dose: 6.25 mg/kg/injection, schedule: Q04DX003 (ip), vehicle: other) is 132 and 141 % of control; the T/C (T/C endpoint: mean survival time, dose: 12.5 mg/kg/injection, schedule: Q04DX003 (ip), vehicle: other) is 147 % of control; the T/C under setting [11] was 147 and 147 % of control [5 of 6 alive].
